# A compilation of properties of binary mixtures (doi:10.1063/5.0239734)
# The densities may have been worked out from excess volumes.
# Test: xn = mol fraction of the nth substance listed
# Conditions: 298.15 K, 100 kPa
SMILES,mass density (x2 = 0) [kg/m3],mass density (x1 = 0.1182) [kg/m3],mass density (x1 = 0.2255) [kg/m3],mass density (x1 = 0.3385) [kg/m3],mass density (x1 = 0.4275) [kg/m3],mass density (x1 = 0.5209) [kg/m3],mass density (x1 = 0.6166) [kg/m3],mass density (x1 = 0.7291) [kg/m3],mass density (x1 = 0.863) [kg/m3],mass density (x1 = 1) [kg/m3]
CC#N + CC1COC(=O)O1,772.8,,,,,,,,,
CC1COC(=O)O1 (stereo not given) + CC#N,,858.2,921.1,985.5,1024.5,1063,1105,1141.4,1177.2,1219.3
